No constants are given. Whether binding was seen depends on the method and setting. In cells and extracts the contact can be indirect. Some entries that bind do so weakly or less than the wild type. Tags and fused reporters may be left off the sequences shown.
Molecular target: T1, GST-Vvl fusion protein (Tribolium Ventral veins lacking/Drifter) (Tribolium castaneum) (UniProt C0KZ11)
T1 sequence: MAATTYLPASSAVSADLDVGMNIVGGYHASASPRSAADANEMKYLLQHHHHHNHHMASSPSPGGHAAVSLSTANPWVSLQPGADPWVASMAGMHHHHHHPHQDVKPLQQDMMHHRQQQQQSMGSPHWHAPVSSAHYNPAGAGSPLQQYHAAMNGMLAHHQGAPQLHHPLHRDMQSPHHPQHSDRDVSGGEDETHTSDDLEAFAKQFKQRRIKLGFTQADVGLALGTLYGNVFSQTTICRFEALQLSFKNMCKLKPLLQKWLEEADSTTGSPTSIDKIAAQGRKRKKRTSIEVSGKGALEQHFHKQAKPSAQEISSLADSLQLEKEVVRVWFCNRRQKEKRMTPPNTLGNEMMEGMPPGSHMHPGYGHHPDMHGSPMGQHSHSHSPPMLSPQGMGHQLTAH
Assay: pull-down; GST-Vvl held on Glutathione Sepharose 4B, incubated with Flag-Met, Flag-EcRA, Flag-EcRB and/or Flag-Usp for 2 hours at 4°C; Flag-tagged protein detected by anti-Flag M2 blot; only the target purified

binding: binds
B1: Flag-Usp fusion protein (Tribolium Ultraspiracle) (protein, UniProt A1JUG2 1-407)
chain: MESTDRALSLDQNLSMGSLGAPQSPLDMKPDASTLGQFSPQGPNSPVSFSMGGHGSLLSPSGNTPNKSSTSPYPPNHPLSGSKHLCSICGDRASGKHYGVYSCEGCKGFFKRTVRKDLSYACREEKNCIIDKRQRNRCQYCRYQKCLNMGMKREAVQEERQRTKDRDTSEVESTSNLQADMPLERIIEAEKRVECNDPLVALVVNENNTTVNNICQATHKQLFQLVQWAKLVPHFTSLPLTDQVQLLRAGWNELLIAAFSHRSMQAQDAIVLATGLTVNKSTAHAVGVGNIYDRVLSELVNKMKEMKMDKTELGCLRAIILYNPDVRGIKSVQEVEMLREKIYGVLEEYTRTTHPNEPGRFAKLLLRLPALRSIGLKCLEHLFFFKLIGDVPIDTFLMEMLEGTTDS

From PMC4063743
